Results are given in words; binding and its absence hold for the method and conditions named. Binding seen in cells or lysates may run through a third protein. Some binding calls cover weakened binding; strength is not graded here.
Target: Transcriptional coactivator with PDZ-binding motif (TAZ), Flag-tagged (UniProt Q9EPK5)
Assay: co-IP; lysate of transduced BMMs in NP40 lysis buffer, 500 µg protein, precleared with Protein A- or Protein G-agarose, anti-Flag M2 agarose beads overnight at 4 °C, western blot

Sequences of proteins named here, by UniProt entry; tags and fusion partners are left off.
UniProt Q9EPK5: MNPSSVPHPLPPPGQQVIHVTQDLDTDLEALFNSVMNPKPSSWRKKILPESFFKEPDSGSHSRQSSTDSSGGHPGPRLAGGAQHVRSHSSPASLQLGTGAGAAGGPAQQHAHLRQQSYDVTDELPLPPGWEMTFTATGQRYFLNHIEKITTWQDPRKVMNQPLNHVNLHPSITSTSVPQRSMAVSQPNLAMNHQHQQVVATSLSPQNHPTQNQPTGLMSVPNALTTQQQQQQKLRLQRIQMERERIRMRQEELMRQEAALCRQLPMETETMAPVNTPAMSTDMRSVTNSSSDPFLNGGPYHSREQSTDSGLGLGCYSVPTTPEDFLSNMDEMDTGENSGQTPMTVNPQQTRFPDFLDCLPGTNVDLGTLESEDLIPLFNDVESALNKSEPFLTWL

binding: binds
B1: TGF-β activated kinase 1 (TAK1) (protein, UniProt Q62073 1-579)
chain: MSTASAASSSSSSSASEMIEAPSQVLNFEEIDYKEIEVEEVVGRGAFGVVCKAKWRAKDVAIKQIESESERKAFIVELRQLSRVNHPNIVKLYGACLNPVCLVMEYAEGGSLYNVLHGAEPLPYYTAAHAMSWCLQCSQGVAYLHSMQPKALIHRDLKPPNLLLVAGGTVLKICDFGTACDIQTHMTNNKGSAAWMAPEVFEGSNYSEKCDVFSWGIILWEVITRRKPFDEIGGPAFRIMWAVHNGTRPPLIKNLPKPIESLMTRCWSKDPSQRPSMEEIVKIMTHLMRYFPGADEPLQYPCQYSDEGQSNSATSTGSFMDIASTNTSNKSDTNMEQVPATNDTIKRLESKLLKNQAKQQSESGRLSLGASRGSSVESLPPTSEGKRMSADMSEIEARIVATAGNGQPRRRSIQDLTVTGTEPGQVSSRSSSPSVRMITTSGPTSEKPARSHPWTPDDSTDTNGSDNSIPMAYLTLDHQLQPLAPCPNSKESMAVFEQHCKMAQEYMKVQTEIALLLQRKQELVAELDQDEKDQQNTSRLVQEHKKLLDENKSLSTYYQQCKKQLEVIRSQQQKRQGTS

From article PMC8275679
